Data on 58 molecules can be found in the supplement of paper PMC9433722.

In one experiment the test system is Saos-2. Put plainly: cell viability (CCK-8) relative to DMSO control (% of control); higher = less cytotoxic. The settings on record: 10 µM; 48 h.
For another experiment, the system named is U2OS. The description is as above. The settings on record: 10 µM; 48 h.

Where a name gives a salt, the structure may show the parent alone. The list shows a part of the results. Single values are uncertain, as repeats are few or missing.

On to `CCN(CC)CC#CCOC(=O)C(O)(c1ccccc1)C1CCCCC1` (stereo unspecified) [Oxybutynin Chloride], for which the cell viability with Saos-2 was determined as 112; in the experiment with U2OS it was 113.
In the same order, the values of `NCCCC[C@H](N[C@@H](CCc1ccccc1)C(=O)O)C(=O)N1CCC[C@H]1C(=O)O` [Lisinopril Dihydrate] are 72.6 and 98.3.
As to `CC[C@@H]1C(=O)OC[C@@H]1Cc1cncn1C` [(+)-Pilocarpine . hydrochloride], the cell viability was found to be 61.8 with Saos-2 and 116 with U2OS.
Turning to `CC(O)(P(=O)(O)O)P(=O)(O)O` [Etidronate Disodium], the values for the cell viability in the experiment on Saos-2 and in the experiment with U2OS were 67.9 and 105, respectively.
For `CCCC(CCC)C(=O)O` [Valproic acid . sodium salt] the same measures were 64.2 and 91.9.
Take `CC(C)OC(=O)C(C)(C)Oc1ccc(C(=O)c2ccc(Cl)cc2)cc1` [Fenofibrate]: the values for the cell viability in the experiment on Saos-2 and in the experiment on U2OS were 64.7 and 108, respectively.
Turning to `CCOc1ccccc1OCCN[C@H](C)Cc1ccc(OC)c(S(N)(=O)=O)c1` [Tamsulosin·HCl], the cell viability with Saos-2 stood at 65; with U2OS, 110.
Take `CC=CC1=C(C(=O)O)N2C(=O)[C@@H](NC(=O)[C@H](N)c3ccc(O)cc3)[C@H]2SC1` [Cefprozil]: the cell viability in the experiment on Saos-2 came to 109; in the experiment with U2OS, 93.4.
As for `COC(=O)[C@H]1[C@H]2C[C@@H]3c4[nH]c5cc(OC)ccc5c4CCN3C[C@H]2C[C@@H](OC(=O)c2cc(OC)c(OC)c(OC)c2)[C@@H]1OC` [Reserpine], the cell viability in the experiment with Saos-2 turned out to be 113; in the experiment with U2OS, 84.8.
In the same order, the values of `CC(C)/N=c1\cc2n(-c3ccc(Cl)cc3)c3ccccc3nc-2cc1Nc1ccc(Cl)cc1` [Clofazimine] are 103 and 102.
Consider `C#C[C@]1(O)CC[C@H]2[C@@H]3CCc4cc(O)ccc4[C@H]3CC[C@@]21C` [17alpha-Ethynylestradiol], for which the figures for the cell viability in the experiment on Saos-2 and in the experiment with U2OS were 99.2 and 79.1, respectively.
Regarding `C[C@]12CC[C@@H]3c4ccc(O)cc4CC[C@H]3[C@@H]1CCC2=O` [Estrone], the cell viability with Saos-2 is 66.2; with U2OS, 110.
As for `Nc1cc(N2CCCCC2)nc(N)[n+]1[O-]` [Minoxidil], the figures for the cell viability in the experiment with Saos-2 and in the experiment with U2OS were 64.2 and 94.1, respectively.
As to `Nc1ccn([C@@H]2O[C@H](CO)[C@@H](O)[C@@H]2O)c(=O)n1` [Cytarabine], the results for the cell viability with Saos-2 and with U2OS were 60.6 and 84.2, respectively.
In the same order, the values of `CC(=O)O[C@@]12CO[C@@H]1C[C@H](O)[C@@]1(C)C(=O)[C@H](O)C3=C(C)[C@@H](OC(=O)[C@H](O)[C@@H](NC(=O)OC(C)(C)C)c4ccccc4)C[C@@](O)([C@@H](OC(=O)c4ccccc4)[C@H]21)C3(C)C` [Docetaxel] are 29.3 and 62.2.
For `COc1ccc(O)cc1` [Mequinol] the same measures were 95 and 93.6.
In the same order, the values of `CCN(CCO)CCCC(C)Nc1ccnc2cc(Cl)ccc12` (stereo unspecified) [Hydroxychloroquine Sulfate] are 98.1 and 93.1.
As to `CN(C)CCCN1c2ccccc2CCc2ccc(Cl)cc21` [Clomipramine·HCl], the cell viability is 104 in the experiment on Saos-2 and 105 in the experiment on U2OS.
For `CC(C)(C)NC[C@H](O)COc1cccc2c1CCCC2=O` [Levobunolol·HCl] the same measures were 112 and 90.5.
As to `O=C1CC2(CCCC2)CC(=O)N1CCCCN1CCN(c2ncccn2)CC1` [Buspirone·HCl], the cell viability in the experiment on Saos-2 came out at 65.6; with U2OS, 105.
Consider `CCN1CCN(C(=O)N[C@@H](C(=O)N[C@@H]2C(=O)N3[C@@H]2SC(C)(C)[C@@H]3C(=O)O)c2ccccc2)C(=O)C1=O` [Piperacillin], for which the cell viability was found to be 64.6 in the experiment on Saos-2 and 102 in the experiment on U2OS.
Regarding `Nc1ccn([C@H]2CC[C@@H](CO)O2)c(=O)n1` [Zalcitabine], the cell viability in the experiment with Saos-2 is 69; in the experiment with U2OS it was 107.
In the same order, the values of `CN1C(CCl)Nc2cc(Cl)c(S(N)(=O)=O)cc2S1(=O)=O` (stereo unspecified) [Methyclothiazide] are 90 and 100.
In the same order, the values of `Nc1ncnc2c1ncn2[C@@H]1O[C@H](CO)[C@@H](O)[C@H]1O` [Adenosine] are 119 and 92.8.
As for `CNCC[C@H](Oc1cccc2ccccc12)c1cccs1` [Duloxetine·HCl], the values for the cell viability in the experiment with Saos-2 and in the experiment with U2OS were 101 and 74.7, respectively.
For `CC(C)Cn1cnc2c(N)nc3ccccc3c21` [Imiquimod] the same measures were 67.5 and 97.1.
`CCCSc1ccc2[nH]c(NC(=O)OC)nc2c1` [Albendazole]: the cell viability turned out to be 28.9 in the experiment with Saos-2 and 74.9 with U2OS.
Regarding `CCC(=O)O[C@]1(C(=O)SCF)[C@H](C)C[C@H]2[C@@H]3C[C@H](F)C4=CC(=O)C=C[C@]4(C)[C@@]3(F)[C@@H](O)C[C@@]21C` [Fluticasone Propionate], the figures for the cell viability in the experiment with Saos-2 and in the experiment with U2OS were 99 and 101, respectively.
As to `C[N+](C)(C)CC(=O)O` [Betaine], the cell viability with Saos-2 came to 118; in the experiment with U2OS it was 108.
In the same order, the values of `O=C(O)c1cc(-c2ccc(F)cc2F)ccc1O` [Diflunisal] are 71.4 and 110.
Turning to `C[n+]1ccccc1/C=N/O` [Pralidoxime Chloride], the cell viability is 101 with Saos-2 and 83.3 in the experiment on U2OS.
In the same order, the values of `Nc1nc(O)c2ncn(CCC(CO)CO)c2n1` [Penciclovir] are 67.3 and 80.6.
For `Cc1ccc(Nc2nccc(N(C)c3ccc4c(C)n(C)nc4c3)n2)cc1S(N)(=O)=O` [Pazopanib·HCl] the same measures were 82.8 and 84.7.
For `CO[C@H]1C[C@@H]2CC[C@@H](C)[C@@](O)(O2)C(=O)C(=O)N2CCCC[C@H]2C(=O)O[C@H]([C@H](C)C[C@@H]2CC[C@@H](OCCO)[C@H](OC)C2)CC(=O)[C@H](C)/C=C(\C)[C@@H](O)[C@@H](OC)C(=O)[C@H](C)C[C@H](C)/C=C/C=C/C=C/1C` [Everolimus] the same measures were 84.8 and 63.3.
Regarding `CC(C)(C)NCC(O)c1ccc(O)c(CO)c1` (stereo unspecified) [Salbutamol Hemisulfate], the cell viability turned out to be 62.2 in the experiment with Saos-2 and 116 with U2OS.
Turning to `CC(C)(O/N=C(\C(=O)N[C@@H]1C(=O)N2C(C(=O)[O-])=C(C[n+]3ccccc3)CS[C@H]12)c1csc(N)n1)C(=O)O` [Ceftazidime Hydrate], the cell viability with Saos-2 turned out to be 68.7; with U2OS it was 87.9.
As for `CNNCc1ccc(C(=O)NC(C)C)cc1` [Procarbazine·HCl], the results for the cell viability in the experiment with Saos-2 and in the experiment on U2OS were 67.4 and 106, respectively.
For `NC(=O)OCC(COC(N)=O)c1ccccc1` [Felbamate] the same measures were 61.7 and 90.2.
In the same order, the values of `CN(C)/N=N/c1[nH]cnc1C(N)=O` [Dacarbazine] are 69.5 and 77.4.
On to `CCN(CC)C(=O)/C(C#N)=C/c1cc(O)c(O)c([N+](=O)[O-])c1` [Entacapone], for which the cell viability in the experiment with Saos-2 came out at 54.2; in the experiment on U2OS it was 117.
Turning to `CN1CCCC(n2nc(Cc3ccc(Cl)cc3)c3ccccc3c2=O)CC1` (stereo unspecified) [Azelastine·HCl], the cell viability with Saos-2 and with U2OS was 109 throughout.
On to `C/C(=C\C(=O)OCCCCCCCCC(=O)O)C[C@@H]1OC[C@H](C[C@@H]2O[C@H]2[C@@H](C)[C@H](C)O)[C@@H](O)[C@H]1O` [Mupirocin], for which the cell viability in the experiment on Saos-2 came to 122; in the experiment with U2OS, 102.
For `CC1(C)O[C@@H]2C[C@H]3[C@@H]4C[C@H](F)C5=CC(=O)C=C[C@]5(C)[C@@]4(F)[C@@H](O)C[C@]3(C)[C@]2(C(=O)CO)O1` [Fluocinolone Acetonide] the same measures were 67.7 and 103.
For `CNS(=O)(=O)Cc1ccc2[nH]cc(CCN(C)C)c2c1` [Sumatriptan Succinate] the same measures were 63.8 and 113.
In the same order, the values of `C[C@]12CC[C@@H]3c4ccc(O)cc4CC[C@H]3[C@@H]1CC[C@@H]2O` [17β-Estradiol] are 70 and 114.
For `O=C(O)CCNC(=O)c1ccc(/N=N/c2ccc(O)c(C(=O)O)c2)cc1` [Balsalazide], the cell viability worked out at 122 in the experiment on Saos-2 and 114 with U2OS.
For the molecule `C[C@H]1O[C@H](O[C@H]2[C@H](O)[C@@H](O)[C@@H](O[C@H]3[C@H](O)[C@@H](O)C(O)O[C@@H]3CO)O[C@@H]2CO)[C@H](O)[C@@H](O)[C@@H]1N[C@H]1C=C(CO)[C@@H](O)[C@H](O)[C@H]1O` (stereo partly specified) [Acarbose], the cell viability was determined as 94.9 in the experiment with Saos-2 and 82.8 with U2OS.
For `N[C@@H](C(=O)N[C@@H]1C(=O)N2C(C(=O)O)=C(Cl)CS[C@H]12)c1ccccc1` [Cefaclor] the same measures were 113 and 64.1.
In the same order, the values of `C[C@H]1c2cccc(O)c2C(=O)C2=C(O)[C@]3(O)C(=O)C(C(N)=O)=C(O)[C@@H](N(C)C)[C@@H]3[C@@H](O)[C@@H]21` [Doxycycline Monohydrate] are 70.8 and 104.
In the case of `Nc1ccc(S(N)(=O)=O)cc1` [Sulfanilamide], the figures for the cell viability with Saos-2 and with U2OS were 112 and 86.1, respectively.
For `CC(C)OC(=O)CCC/C=C\C[C@@H]1[C@@H](CC[C@@H](O)CCc2ccccc2)[C@H](O)C[C@@H]1O` [Latanoprost] the same measures were 67.7 and 121.
In the same order, the values of `O=C1O[C@H]([C@@H](O)CO)C(O)=C1O` [L-Ascorbic Acid] are 110 and 103.
For `COc1cc2c(cc1OC)C(=O)C(CC1CCN(Cc3ccccc3)CC1)C2` (stereo unspecified) [Donepezil·HCl], the results for the cell viability in the experiment with Saos-2 and with U2OS were 61.2 and 87.3, respectively.
Turning to `Clc1ccc(C(c2ccccc2Cl)C(Cl)Cl)cc1` (stereo unspecified) [Mitotane], the cell viability in the experiment on Saos-2 is 109; in the experiment with U2OS it was 107.
For `Cn1c(=O)c2[nH]cnc2n(C)c1=O` [Aminophylline] the same measures were 63.2 and 104.
For `CC(=O)OCC(CCn1cnc2cnc(N)nc21)COC(C)=O` [Famciclovir] the same measures were 67.4 and 103.
In the same order, the values of `C[C@@](Cc1ccc(O)c(O)c1)(NN)C(=O)O` [S(-)-Carbidopa . monohydrate] are 55.8 and 115.
Take `CC(C)[C@H](N)C(=O)OCC(CO)OCn1cnc2c(=O)[nH]c(N)nc21` (stereo partly specified) [Valganciclovir·HCl]: the results for the cell viability in the experiment on Saos-2 and in the experiment on U2OS were 133 and 81.4, respectively.
